Laboratory results from the supplement of paper PMC12067093, “Discovery and optimisation of a covalent ligand for TRIM25 and its application to targeted protein ubiquitination” (Chemical Science, 2025).
This is one part of the list.

Compound: CC1Cc2ccccc2N1C(=O)C1CCCN(C1)C(=O)CCl (mixture of isomers) [TRIM25 ligand 11 (diastereomer mixture)]
Test: probe-labelled cysteine peptide fold change vs DMSO (competition) (log2 fold change); higher = less target engagement (more negative = stronger competition)
Conditions: THP-1, incubation time: 4 h
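Further: competitive chemoproteomic profiling in live THP-1 cells with an iodoacetamide desthiobiotin (IA-DTB) probe, comparing probe-labelled peptide intensities in compound-treated cells against DMSO-treated controls.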

Target | probe-labelled cysteine peptide fold change (10 µM) | probe-labelled cysteine peptide fold change (50 µM)
DIS3L_Q8TF46_88_GIIFMQTACQAVQHQR (UniProt Q8TF46) | 0.0869 | 0.0605
DICER1_Q9UPY3_443_EKPETNFPSPFTNILCGIIFVER (UniProt Q9UPY3) | 0.029 | -0.018
DHX57_Q6P158_453_INNPACHK (UniProt Q6P158) | 0.0948 | 0.0338
DHRS7B_Q6IAN0_220_HATQAFFDCLR (UniProt Q6IAN0) | 0.107 | -0.128
DHX9_Q08211_608+612_KDKDDDGGEDDDANCNLICGDEYGPETR (UniProt Q08211) | -0.128 | -0.345
DIP2A_Q14689_6_GCPLEAAPLPAEVR (UniProt Q14689) | -0.175 | -0.385
DNAJA1_P31689_302_CVLNEGMPIYR (UniProt P31689) | -0.0264 | -0.211
DHX9_Q08211_773+777_VRPGFCFHLCSR (UniProt Q08211) | -0.114 | -0.0619
DIAPH3_Q9NSV4_464_LIDECVSQIVLHR (UniProt Q9NSV4) | 0.0814 | 0.0797
DNM2_P50570-3_427_CVDLVVSELATVIKK (UniProt P50570) | -0.178 | 0.127
DHX38_Q92620_618_FEDCTSENTLIK (UniProt Q92620) | 0.0471 | 0.0176
DNAJB11_Q9UBS4_196_FQMTQEVVCDECPNVK (UniProt Q9UBS4) | -0.00478 | 0.0543
DHX38_Q92620_865_TGPGQCFR (UniProt Q92620) | -0.0367 | 0.0212
DNM1_Q05193_427_CVDMVISELISTVR (UniProt Q05193) | -0.0454 | 0.145
DHX38_Q92620_20_GDTSEDASIHRLEGTDLDCQVGGLICK (UniProt Q92620) | 0.106 | -0.445
DIAPH2_O60879_775_NEYDDLCEPEQFGVVMSSVK (UniProt O60879) | 0.166 | -0.118
DNAJC7_Q99615_164_KVVFCMDR (UniProt Q99615) | -0.158 | -0.0673
DNAJC10_Q8IXB1_161_EFDAAVNSGELWFVNFYSPGCSHCHDLAPTWR (UniProt Q8IXB1) | 0.476 | -0.235
DNAAF5_Q86Y56_773_MAAASTLVTWLQCVK (UniProt Q86Y56) | 0.176 | 0.0549
DIAPH2_O60879_159_HECTLSSQEYVHELR (UniProt O60879) | 0.02 | -0.127
DNAJC13_O75165_1178_SILGHILPEAMVCYLENYEPEK (UniProt O75165) | 0.195 | -0.119

Two records picked at random from those above, as already listed:
Target | probe-labelled cysteine peptide fold change (10 µM) | probe-labelled cysteine peptide fold change (50 µM)
DIAPH3_Q9NSV4_464_LIDECVSQIVLHR (UniProt Q9NSV4) | 0.0814 | 0.0797
DHX57_Q6P158_453_INNPACHK (UniProt Q6P158) | 0.0948 | 0.0338

Continued.

Target | probe-labelled cysteine peptide fold change (10 µM) | probe-labelled cysteine peptide fold change (50 µM)
DHX9_Q08211_438_AAECNIVVTQPR (UniProt Q08211) | -0.00921 | 0.0105
DNAJB14_Q8TBM8_77_KPSGSGDQSKPNCTK (UniProt Q8TBM8) | -0.262 | -0.569
DMAC2_Q9NW81_184_LYPLADSLQELSLAGCPR (UniProt Q9NW81) | -0.0317 | -0.00224
DNASE2_O00115_299_WCVSPK (UniProt O00115) | -0.0971 | 0.0817
DHX9_Q08211_1099_LQISHEAAACITGLR (UniProt Q08211) | 0.0435 | 0.019
DHX37_Q8IY37_616_LCVVATNVAETSLTIPGIK (UniProt Q8IY37) | -0.0366 | 0.0989
DIAPH2_O60879_283_ILSAICIVGEENILDK (UniProt O60879) | 0.111 | 0.118
DHX37_Q8IY37_486_MLPAGGILVFLTGQAEVHALCR (UniProt Q8IY37) | 0.281 | 0.563
DGLUCY_Q7Z3D6_100_YEFGACTGSLASLEQYSEQLK (UniProt Q7Z3D6) | -0.0187 | 0.115
DNAJA2_O60884_146_NVLCSACSGQGGK (UniProt O60884) | -0.15 | -0.0701
DHX9_Q08211_777_VRPGFCFHLCSR (UniProt Q08211) | -0.151 | 0.0595
DHX9_Q08211_612_DKDDDGGEDDDANCNLICGDEYGPETR (UniProt Q08211) | 0.218 | -0.286
DHX9_Q08211_773_VRPGFCFHLCSR (UniProt Q08211) | 0.0368 | -0.252
DIS3L2_Q8IYB7_216_DETTCISQDTR (UniProt Q8IYB7) | -0.0346 | -0.112
DNMT1_P26358_1071_CTVEYGEDLPECVQVYSMGGPNR (UniProt P26358) | 0.0764 | -0.0599
DNAJC21_Q5F1R6_3_CHYEALGVR (UniProt Q5F1R6) | 0.017 | 0.0575
DIEXF_Q68CQ4_717_ATNRGEEATWTCTVLYSK (UniProt Q68CQ4) | -0.0216 | 0.0467
DLAT_P10515_164_DVPIGAIICITVGKPEDIEAFK (UniProt P10515) | -0.0624 | -0.0699
DIDO1_Q9BTC0_1079_AYPVSGCFDYLSEDLPDTIHIGGR (UniProt Q9BTC0) | -0.061 | -0.0264
DIAPH3_Q9NSV4_1158_EACNVESNR (UniProt Q9NSV4) | -0.126 | -0.126
DLGAP5_Q15398_381_LPCPLGPLTVWHEEHVLNK (UniProt Q15398) | 0.0766 | 0.0275
